## Screening data, single-dose tests

Amino acid sequences for entries named in this document (tags omitted). Residues count along the entry.
UniProt P9WFT3, whole entry: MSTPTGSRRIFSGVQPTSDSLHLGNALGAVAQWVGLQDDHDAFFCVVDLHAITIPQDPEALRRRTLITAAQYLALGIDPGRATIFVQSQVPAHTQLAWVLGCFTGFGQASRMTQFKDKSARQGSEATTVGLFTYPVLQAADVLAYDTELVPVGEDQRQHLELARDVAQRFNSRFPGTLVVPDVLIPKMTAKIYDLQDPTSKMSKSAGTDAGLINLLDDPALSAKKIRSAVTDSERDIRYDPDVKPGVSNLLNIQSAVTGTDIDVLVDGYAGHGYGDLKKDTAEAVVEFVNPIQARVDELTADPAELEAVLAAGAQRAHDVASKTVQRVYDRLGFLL
UniProt Q8IDJ8, 1-583: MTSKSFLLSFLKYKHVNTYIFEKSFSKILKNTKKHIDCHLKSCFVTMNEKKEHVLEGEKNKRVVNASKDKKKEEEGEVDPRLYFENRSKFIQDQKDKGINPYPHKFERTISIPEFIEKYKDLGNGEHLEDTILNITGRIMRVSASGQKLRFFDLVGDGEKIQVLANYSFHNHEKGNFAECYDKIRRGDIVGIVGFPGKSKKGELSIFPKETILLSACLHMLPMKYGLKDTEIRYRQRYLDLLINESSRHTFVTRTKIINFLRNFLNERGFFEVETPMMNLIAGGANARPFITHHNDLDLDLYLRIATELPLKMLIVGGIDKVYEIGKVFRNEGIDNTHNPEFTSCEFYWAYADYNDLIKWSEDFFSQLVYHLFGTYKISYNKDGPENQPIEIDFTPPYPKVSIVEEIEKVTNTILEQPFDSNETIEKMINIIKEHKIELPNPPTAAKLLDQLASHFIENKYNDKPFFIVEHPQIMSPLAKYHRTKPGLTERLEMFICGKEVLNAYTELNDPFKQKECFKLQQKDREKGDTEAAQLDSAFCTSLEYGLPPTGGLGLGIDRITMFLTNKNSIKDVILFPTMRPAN
UniProt P9WPC5, whole entry: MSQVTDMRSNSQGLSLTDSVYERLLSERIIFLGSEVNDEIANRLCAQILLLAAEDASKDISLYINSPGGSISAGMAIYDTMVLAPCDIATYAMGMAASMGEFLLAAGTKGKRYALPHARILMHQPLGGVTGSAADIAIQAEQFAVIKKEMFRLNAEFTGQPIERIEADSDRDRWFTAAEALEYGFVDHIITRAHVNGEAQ
UniProt P9WPC3, whole entry partner: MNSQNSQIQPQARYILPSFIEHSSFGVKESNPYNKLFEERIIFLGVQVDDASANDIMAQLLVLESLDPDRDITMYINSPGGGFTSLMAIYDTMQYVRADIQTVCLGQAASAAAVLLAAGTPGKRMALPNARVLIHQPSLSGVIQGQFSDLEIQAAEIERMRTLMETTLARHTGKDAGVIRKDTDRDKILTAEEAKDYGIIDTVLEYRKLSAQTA

Measurements from “University of Dundee, Small-Polar-MMV Screening Library” (2021), ChEMBL document CHEMBL3988442.

MtTrpRS: 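Enzyme assay of tryptophanyl-tRNA synthetase; the read-out is not stated. Target: Tryptophan-tRNA ligase, Mycobacterium tuberculosis (UniProt P9WFT3). Compounds at 10 µM. Higher most likely means stronger inhibition; the record gives no direction and few retests gave an IC50. Size under these conditions: about 65,000 compounds, about 64 of them at 50% or above in at least one test.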
PfKRS1: 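Lysine-tRNA ligase, Plasmodium falciparum 3D7 (UniProt Q8IDJ8). Enzyme assay of the cytosolic lysyl-tRNA synthetase in 384-well plates, read by luminescence. Compounds at 30 µM. Direction is inferred from only a few compounds that gave an IC50; most scored high, so higher reads as stronger inhibition. Size under these conditions: about 69,000 compounds, about 49 of them at 50% or above in at least one test.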
ClpP1P2: 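ClpP1P2, Mycobacterium tuberculosis (UniProt P9WPC5 and UniProt P9WPC3). Protease assay of ClpP1P2, read by the AMC dye that it sets free. Concentration: 50 µM. Higher reads as stronger inhibition, judged from the few compounds that gave an IC50. Most other retested compounds had strongly negative values. Size under these conditions: about 69,000 compounds, about 10 of them at 50% or above in at least one test.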

Each number is a percent effect as filed. How 0% and 100% were set is not recorded. Most values in the screen are low, and negative values occur. This is an unselected part of the compounds tested. A dash means the value is not listed here; it may have been measured.

structure,MtTrpRS,PfKRS1,ClpP1P2
CCc1nc(C2CCCN2C(=O)CCCn2cccn2)no1 (stereo not given),-1.981%,2.636%,-5.356%
Cn1c(CNCC2CCCN2c2cccnn2)nc2ccccc21 (stereo not given),-2.985%,0.5764%,-17.82%
CCOc1cc(C)nc(N2CCN(C(=O)c3cnc[nH]3)CC2)n1,-0.2952%,1.331%,-15.23%
c1ccc(OCc2n[nH]c3c2CN(CC2CC2)C3)nc1,1.199%,4.469%,5.11%
O=C(CN1CC(c2nc(-c3ccco3)no2)C1)NCCc1ccccc1,1.519%,0.1009%,-4.418%
COc1ccc(C(=O)N2CCCCC2Cn2cccn2)c(F)c1 (stereo not given),-3.277%,1.866%,7.098%
CCn1nc(C)cc1C(=O)N1C[C@@H](CN(C)C)[C@@H](CO)C1,1.968%,3.639%,-6.404%
CCc1cnc(NCC(c2cccnc2)N2CCOCC2)nc1 (stereo not given),5.623%,5.394%,-1.263%
COCCCn1ccc(NCc2ccc(NC(C)=O)cc2)n1,1.732%,1.739%,-6.549%
Cc1nonc1CN(C)Cc1nc(-c2cccc(F)c2F)oc1C,2.799%,-1.861%,-6.064%
COc1ccccc1CCN1CCCC(CN(C)Cc2ccc(C)o2)C1 (stereo not given),1.768%,5.966%,-12.12%
CC(C)C1CN(C(=O)c2ccc(N3CCCC3)nc2)CCS1 (stereo not given),2.734%,5.975%,-5.288%
c1cnn(CC2CN(Cc3nc(-c4ccoc4)no3)CCO2)c1 (stereo not given),18.64%,-1.659%,-11.5%
CCc1nccn1C1CCCN(C(=O)c2cnn3cccnc23)C1 (stereo not given),13.14%,-1.094%,-15.39%
CC(C)c1nnc2n1CCN(C(=O)c1ccc(OCC(N)=O)cc1)C2,-0.8601%,0.5437%,-3.293%
CC(=O)NCCc1ccc(S(=O)(=O)N(C)C(C)C(C)(C)C)s1 (stereo not given),3.047%,0.07996%,-3.009%
O=C([C@H]1C[C@H]2OCC[C@H]2N(C(=O)c2ccncc2)C1)N1CCCCO1,0.7345%,4.248%,5.531%
COC(=O)c1cc(C2CC2)nc2c(C#N)cnn12,1.643%,1%,-46.84%
COCCN(Cc1ccccc1)C(=O)c1cnn(C)c1C,-3.307%,2.186%,2.59%
O=C1[C@H]2CN(Cc3cccs3)C[C@H]2CN1CCN1CCCC1,4.506%,3.679%,14.11%
CCc1ccc(C(NC(=O)CN(C)S(C)(=O)=O)C(C)(C)C)o1 (stereo not given),2.16%,3.379%,-4.181%
COc1cc(C)c(S(=O)(=O)CC(=O)N(C)C(C)C)cc1OC,0.3564%,-3.793%,-14.59%
O=C(Cn1nc(Br)nc1Br)N1CCOCC1,3.344%,-0.4802%,1.111%
CC(=O)N1CCc2nc(N(C)C)nc(NCCc3ccccc3)c2CC1,0.2138%,-1.376%,2.795%
CN(C)S(=O)(=O)N1CC[C@]2(O)CCN(Cc3cccc(F)c3)C[C@@H]2C1,-2.98%,4.601%,-17.31%
CCCOCC(=O)NS(=O)(=O)c1ccc2c(c1)OCCO2,2.887%,-1.416%,-23.27%
N#Cc1ccc(N2CCN(c3cnccn3)CC2)c(C(F)(F)F)c1,-2.2%,6.344%,2.487%
CCOC(=O)CN1CCC(C(=O)c2cc(F)ccc2F)CC1,1.258%,-0.1091%,-5.765%
Cc1cc(C(C)(O)CNC(=O)c2ccc(Br)o2)c(C)o1 (stereo not given),-2.618%,-0.8134%,-4.193%
c1cc(CCN2CCC(NCc3ccsc3)CC2)ccn1,13.52%,-5.247%,-4.273%
O=C(Cn1cccn1)N1CCC(Oc2cnccn2)CC1,1.748%,0.9167%,-0.2273%
c1ccc(COC[C@H]2CC[C@H]3[C@H](CCN3Cc3ccco3)O2)nc1,1.355%,-0.3098%,3.245%
O=C(Nc1ccc(CCN2CCC(O)CC2)cc1)C1CCCOC1 (stereo not given),-5.031%,0.01962%,-16.27%
O=C(CC1CC1)N[C@@H]1CN(Cc2cccnc2)C[C@@H]2CCCO[C@@H]21,0.8137%,3.673%,0.2433%
CCN1C[C@H]2[C@@H](C1)N(c1ncc(F)cn1)CC[C@H]2OC,14.45%,-0.2347%,11.34%
CCS(=O)(=O)N1CCCC2(COCCN(c3cnccn3)C2)C1 (stereo not given),-1.262%,-1.597%,2.618%
COCCNc1ncc(-c2cc(C)no2)c(-c2ccco2)n1,14.06%,-1.708%,-19.07%
Cc1cc(CNC(C)Cn2cncn2)ccc1Br (stereo not given),3.856%,-5.156%,-16.59%
CCOCc1ncn2c1CN(S(=O)(=O)c1cccs1)CC2,3.092%,6.987%,-10.22%
CC(C)c1nc(CN2CCCC2Cn2cccn2)no1 (stereo not given),-0.6816%,0.1145%,-6.675%
CN(C)C[C@H]1C[C@@H]2CN(C(=O)c3ccno3)C[C@@H]2O1,-2.422%,-1.788%,-5.049%
Cc1ccc(CC(=O)N2CCOCC2c2c(C)n[nH]c2C)cc1 (stereo not given),1.088%,2.436%,-3.533%
COCCCS(=O)(=O)N1CCN(Cc2cccn2C)CC1,-2.545%,-8.84%,17.84%
COc1ccc(OC)c2c(C)cc(N(C)Cc3cc(C)on3)nc12,4.534%,2.158%,1.052%
CCn1cc(CN(C)S(=O)(=O)c2ccc(Cl)cc2)cn1,5.226%,-1.831%,11.46%
CC(NCCNS(=O)(=O)c1cccc(Cl)c1)C1CCOCC1 (stereo not given),-4.283%,6.097%,-10.23%
CC(CCn1cccn1)Nc1ccc(-c2nccn2C)nn1 (stereo not given),6.282%,-2.336%,-9.155%
O=C(c1cnc(-c2ncccn2)s1)N1CCCC(n2cccn2)C1 (stereo not given),-1.183%,-0.5235%,-2.826%
Cc1cccc2c(CCNC(=O)NCCC[S+](C)[O-])c[nH]c12 (stereo not given),-7.637%,4.176%,-2.877%
Cn1nnnc1SC1CCN(c2ccccc2Cl)C1=O (stereo not given),-7.74%,0.6972%,-4.848%
CC(CCc1ccccc1)NC(=O)CNCCCN(C)C (stereo not given),0.273%,-0.9888%,-6.541%
CC(C)CC(=O)N1CC[C@H]2C[C@H](c3nccs3)O[C@@H]2C1,4.564%,-0.4722%,-7.651%
COc1ccccc1-c1ncc(CN2C[C@H](O)[C@@H](N3CCCC3)C2)s1,-2.642%,1.223%,0.2886%
Cc1ccc(N2CC[C@H](OCC3CC3)[C@@H]2Cc2ccncc2)nn1,-,2.23%,-5.905%
CCC1CN(CC(=O)NC2(C#N)CCCC2)CCN1CCOC (stereo not given),2.427%,2.414%,-5.053%
FC(F)(F)Oc1ccc(CN2CCCC(n3cncn3)C2)cc1 (stereo not given),0.2179%,0.2055%,-7.401%
Cc1nc(CN2CCCC(c3nc(C)n4c(C)c(C)sc34)C2)co1 (stereo not given),2.725%,1.436%,9.002%
COc1cccc2c1OCC(CNC(=O)CSc1nc(N)n[nH]1)C2 (stereo not given),0.3353%,5.213%,1.728%
Cc1cnn(CC2CCCCN2C(=O)Cc2c(C)noc2Cl)c1 (stereo not given),20.7%,-0.8055%,-0.2647%
Cc1cc(C(=O)NCCN2CCN(S(C)(=O)=O)CC2)no1,-2.401%,6.253%,8.056%
CC(C)(C)C1CCC(NCCN2CCOCC2)CC1 (stereo not given),-1.652%,2.567%,-3.996%
COc1ccc(CN2CCC(c3cc(O)nc(C)n3)C2)c(F)c1 (stereo not given),-,1.949%,-6.734%
O=C1CC[C@H]2CN(c3ncc(F)cn3)CC[C@H]2N1CCc1c[nH]cn1,-5.51%,2.997%,-5.277%
CCC1c2ccsc2CCN1C(=O)NCc1cc(C)on1 (stereo not given),-5.481%,0.02008%,-24.01%
CNC(=O)NC(=O)CN1CCCC(Cc2ccccc2OC)C1 (stereo not given),1.058%,13.02%,-8.495%
O=C1CCC2(CCCN(C(=O)c3ncc[nH]3)C2)CN1CCc1c[nH]cn1 (stereo not given),1.365%,3.095%,-1.391%
CC(C)(C)NCc1ccc(OCc2ccc3c(c2)OCCO3)cc1,-0.9492%,2.101%,-9.977%

Repeated from the top, 5 entries:

* CCc1nc(C2CCCN2C(=O)CCCn2cccn2)no1 (stereo not given) | MtTrpRS: -1.981%; PfKRS1: 2.636%; ClpP1P2: -5.356%
* Cn1c(CNCC2CCCN2c2cccnn2)nc2ccccc21 (stereo not given) | MtTrpRS: -2.985%; PfKRS1: 0.5764%; ClpP1P2: -17.82%
* CCOc1cc(C)nc(N2CCN(C(=O)c3cnc[nH]3)CC2)n1 | MtTrpRS: -0.2952%; PfKRS1: 1.331%; ClpP1P2: -15.23%
* c1ccc(OCc2n[nH]c3c2CN(CC2CC2)C3)nc1 | MtTrpRS: 1.199%; PfKRS1: 4.469%; ClpP1P2: 5.11%
* O=C(CN1CC(c2nc(-c3ccco3)no2)C1)NCCc1ccccc1 | MtTrpRS: 1.519%; PfKRS1: 0.1009%; ClpP1P2: -4.418%